In this experiment the target is human doppel on human tumor endothelial cells (human) (UniProt Q9UKY0). The experiment in a line: flow cytometry on HCTEC (human colonic tumor endothelial cells), fluorescent secondary antibody; no control bar and no antibody concentration shown. In general terms: Flow cytometry measures light scatter and fluorescence of single cells or particles in a stream.

Amino acid sequences for entries named in this document (tags omitted). Residues count along the entry.
UniProt Q9UKY0, residues 26-152: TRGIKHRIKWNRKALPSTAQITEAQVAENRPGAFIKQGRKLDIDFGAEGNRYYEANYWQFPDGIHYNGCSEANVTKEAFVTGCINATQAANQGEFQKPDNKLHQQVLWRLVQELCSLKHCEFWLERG

The record followed here is patent publication US20220267422A1.

Results are given in words; binding and its absence hold for the method and conditions named. Some entries that bind do so weakly or less than the wild type.

B1: Human monoclonal antibody E9 (antibody, human IgG1, kappa, V domains shown)
VH: QVQLVQSGAEVKKPGSSVKVSCKASGGTFSSYYMHWVRQAPGQGLEWMGRISPGGGGTIYAQKFQGRVTITADESTSTAYMELSSLRSEDTAVYYCARAQSEGLSYYFDVWGQGTLVTVSS
VL: DIQMTQSPSSLSASVGDRVTITCRASQSIRNYLNWYQQKPGKAPKLLIYAASNLQSGVPSRFSGSGSGTDFTLTISSLQPEDFATYYCQQSSSFPLTFGQGTKVEIKR
For B1, the binding result is on record as “binds”.
